Source: PubChem BioAssay AID290 (DTP/NCI, 2004)
The list is a part of this screen's results and no random one: it gathers some chemical classes. Other doses and runs of a compound may be missing. T/C is the treated group as % of the vehicle group. Schedule codes are those of the source, read here as Q, the interval in days (D) or hours (H), X, the number of doses. Some T/C values carry the count of animals alive at the toxicity check; without a count or a note in brackets, all were alive then. Some doses have a count of surviving animals in place of a T/C: the source files T/C as zero there, which appears to mark a toxic dose or a test without result, not a measured value. Survivors were counted at the toxicity check; its day is shown where the source gives one, and later deaths do not show.

System: mice, P1798 lymphosarcoma sc, survival or tumor weight T/C
Assay: NCI In Vivo Anticancer Drug Screen. Data for tumor model P1798 Lymphosarcoma (subcutaneous) in unknown mice
Conditions: T/C endpoint: mean tumor weight, schedule: Q01DX010 (ip), higher T/C = larger tumour
Method: The antitumor activity of compounds was measured in mice bearing transplantable tumors. Survival or tumor size were measured and the results are expressed as the measurement made in the treated group (T) divided by the measurement made in the vehicle treated control group (C). The tumor model used in this assay is P1798 Lymphosarcoma (subcutaneous) in unknown mice

SMILES: OC(CNCCCl)C(O)C(O)C(O)CNCCCl (configuration not stated)
- T/C (dose: 3.1 mg/kg/injection, vehicle: saline, evaluated on day 14): 58 % of control
- T/C (dose: 6.3 mg/kg/injection, vehicle: saline, evaluated on day 14): 57 % of control
- T/C (dose: 12.5 mg/kg/injection, vehicle: saline, evaluated on day 14): 62 % of control
- T/C (dose: 25.0 mg/kg/injection, vehicle: saline, evaluated on day 14): 28 % of control [9 of 10 alive]

SMILES: Cc1[nH]c(=O)[nH]c(=O)c1N(CCCl)CCCl
- T/C (dose: 0.5 mg/kg/injection, vehicle: saline, evaluated on day 12): 81 % of control
- T/C (dose: 1.0 mg/kg/injection, vehicle: saline, evaluated on day 12): 107 % of control
- T/C (dose: 2.0 mg/kg/injection, vehicle: saline, evaluated on day 12): 91 % of control
- T/C (dose: 4.0 mg/kg/injection, vehicle: saline, evaluated on day 12): 6 % of control

SMILES: CN(N=O)C(=N)N[N+](=O)[O-]
- T/C (dose: 9.4 mg/kg/injection, vehicle: none, evaluated on day 14): 97 % of control [9 of 10 alive]
- T/C (dose: 18.75 mg/kg/injection, vehicle: none, evaluated on day 14): 60 % of control [8 of 10 alive]
- survivor count (dose: 37.5 mg/kg/injection, vehicle: none): 0 of 10
- survivor count (dose: 75.0 mg/kg/injection, vehicle: none): 0 of 10
